According to patent US20020137906A1:
No constants are given. Whether binding was seen depends on the method and setting. Some results given as binding are weak or reduced against the parent protein; the word gives no strength.

Target: T1, LIN-35 (C. elegans) (UniProt G5EDT1)
T1 sequence (looked up): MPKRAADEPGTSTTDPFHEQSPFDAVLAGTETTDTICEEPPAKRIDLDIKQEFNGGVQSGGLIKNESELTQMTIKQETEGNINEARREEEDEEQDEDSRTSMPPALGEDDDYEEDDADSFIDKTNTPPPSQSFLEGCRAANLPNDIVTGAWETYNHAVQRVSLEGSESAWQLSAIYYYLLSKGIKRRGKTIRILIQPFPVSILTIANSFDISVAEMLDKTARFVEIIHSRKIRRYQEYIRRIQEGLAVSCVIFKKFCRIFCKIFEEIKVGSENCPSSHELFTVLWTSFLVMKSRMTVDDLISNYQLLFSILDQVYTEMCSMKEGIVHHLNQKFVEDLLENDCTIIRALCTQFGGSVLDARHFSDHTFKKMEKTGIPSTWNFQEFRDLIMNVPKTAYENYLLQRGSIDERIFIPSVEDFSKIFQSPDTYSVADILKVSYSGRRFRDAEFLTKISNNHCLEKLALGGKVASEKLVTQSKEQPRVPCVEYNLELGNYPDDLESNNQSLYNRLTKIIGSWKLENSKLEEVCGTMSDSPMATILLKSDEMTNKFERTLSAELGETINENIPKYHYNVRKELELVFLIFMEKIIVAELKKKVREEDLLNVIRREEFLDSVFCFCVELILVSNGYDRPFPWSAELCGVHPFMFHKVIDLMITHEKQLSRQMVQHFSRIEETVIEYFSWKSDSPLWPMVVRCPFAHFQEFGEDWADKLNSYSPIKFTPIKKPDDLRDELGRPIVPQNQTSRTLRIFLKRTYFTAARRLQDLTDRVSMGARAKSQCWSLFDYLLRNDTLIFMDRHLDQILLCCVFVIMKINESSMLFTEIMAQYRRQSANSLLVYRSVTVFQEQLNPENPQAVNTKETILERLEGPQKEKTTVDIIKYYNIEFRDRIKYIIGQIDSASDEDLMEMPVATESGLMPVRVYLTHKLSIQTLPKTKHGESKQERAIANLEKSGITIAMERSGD
Experiment: yeast two-hybrid screen, LIN-35 as bait

binding: binds
B1: LIN-8 polypeptide (protein)
chain: MSKIKTHSTGSKRTVPFYKLPPPVPLPPLPPPDPTRYFSTEKYIALSKDEKFKFDDYDVNDETLKKVVLNEIGKCPDIWSSRSQAAIMEHYPIVATETYRRTGLLLSIKSLKQIYKCGKDNLRNRLRVAIVSKRLTPAQVEAYMWRWEFYGFIRYYRDYTQRWEADLLKDLDVVLGLEARRASKNMEKVDSGELMEPMEPMDSTMDEMCVEEEPYEETGSNWSDPAPEPSQSKSQSPEAKYPQAYLLPEADEVYNPDDFYQEEHESASNAMYRIAFSQQYGGGGSPAVQKPVTFSAQPAPAPVREAPSPVVENVSSSSFTPKPPAMINNFGEEMNQITYQAIRIAREQPERLKLLRKALFDVVLAFDQKEYADVGDLYRDLAQKNS
